This passage reports intracellular bacterial bioluminescence results from the supplement of paper PMC12578635.

Each structure is given as a SMILES string. Some of the results follow. Rule as the data show it: active = 150% or more and inactive = the rest. Many values rest on one well or one pass, so single values are uncertain.

The test deals with Staphylococcus aureus JE2-lux inside RAW 264.7 macrophages. Nature of the test: intracellular bacterial bioluminescence relative to DMSO vehicle; higher = higher intracellular bacterial metabolic activity. The note with it: 10 µM; treatment time 4 h; gentamicin 50 µg/ml.
For `Cc1ccc(NC(=O)c2cc(=O)c3ccccc3o2)c(C(=O)c2ccccc2)c1`, the intracellular bacterial bioluminescence is inactive: 102%.

Regarding `Cc1ccc(C2NC(=O)NC3=C2C(=O)CC(C)(C)C3)cc1` (stereo not given), the intracellular bacterial bioluminescence is inactive: 87.9%.

`COc1cc(/C=C2/S/C(=N/c3ccc(C)cc3)NC2=O)cc(OC)c1OC`: the intracellular bacterial bioluminescence was inactive: 90.6%.

Take `Cn1c2ccc(Br)cc2c2nnc(SCC(=O)NCc3ccccc3)nc21`: the intracellular bacterial bioluminescence was inactive: 83.8%.

With `CCOc1ccc(-n2nnnc2CNS(=O)(=O)c2ccc(F)cc2F)cc1`, the intracellular bacterial bioluminescence is inactive: 54.4%.

On to `CS(=O)(=O)c1ccc(S(=O)CC(=O)Oc2ccc(C3CCCCC3)cc2)c([N+](=O)[O-])c1` (stereo not given), for which the intracellular bacterial bioluminescence is inactive: 102%.

With `CC(=O)CC1(O)C(=O)N(CCOc2ccccc2)c2ccccc21` (stereo not given), the intracellular bacterial bioluminescence was inactive: 137%.

As for `CC(=O)c1csc(NC(=O)Cn2nc(C(F)(F)F)c3c2CCCC3)n1`, the intracellular bacterial bioluminescence was inactive: 92.1%.

Turning to `CCS(=O)(=O)N1CCC(n2cnc3cccnc32)CC1`, the intracellular bacterial bioluminescence was inactive: 115%.

Take `CN1C(=O)/C(=N/NCc2ccccc2)c2ccccc21`: the intracellular bacterial bioluminescence is inactive: 92.7%.

As to `CC(=O)Nc1ccc(S(=O)(=O)Nc2ccc3c(c2)CCC(=O)N3)c(C)c1`, the intracellular bacterial bioluminescence was inactive: 88%.

With `Cc1nc(Oc2ccc(F)cc2)c2c(C)c(C)sc2n1`, the intracellular bacterial bioluminescence was inactive: 98.5%.

For the compound `Cc1ccccc1-c1noc(-c2sc3nc[nH]c(=O)c3c2C)n1`, the intracellular bacterial bioluminescence was inactive: 66.9%.

Regarding `CN(C)c1ccc(NC(=O)CSc2nnc3c(n2)[nH]c2ccc(Cl)cc23)cc1`, the intracellular bacterial bioluminescence is inactive: 108%.

Regarding `COc1cc2cc(C#N)c(SCC(=O)Nc3ccc4c(c3)OCCO4)nc2cc1OC`, the intracellular bacterial bioluminescence is inactive: 106%.

`Cc1ccc(-c2cc3c(N4CCC(C(=O)NC5CCCC5)CC4)nccn3n2)cc1C`: the intracellular bacterial bioluminescence was inactive: 96.2%.

As to `CCc1nc2c(C)nc(Nc3ccccc3)nc2n1-c1ccccc1`, the intracellular bacterial bioluminescence is inactive: 102%.

As to `COc1ccc(OC)c2sc(N(Cc3ccncc3)C(=O)COc3ccc(Cl)cc3)nc12`, the intracellular bacterial bioluminescence is inactive: 28.1%.

For `CC(C)N1CCc2c(sc(NC(=O)c3ccc(Br)cc3)c2C(N)=O)C1`, the intracellular bacterial bioluminescence was inactive: 70.6%.

On to `Cc1oc(-c2ccc(F)cc2)nc1C(=O)Nc1cccc(-n2cnnc2)c1`, for which the intracellular bacterial bioluminescence was inactive: 106%.

For `O=C(CSc1nc(O)c2ccccc2n1)N1CCOCC1`, the intracellular bacterial bioluminescence is inactive: 101%.

With `COc1ccc(-n2c(=O)[nH]cc(C(=O)N3CCc4ccccc43)c2=O)cc1OC`, the intracellular bacterial bioluminescence was inactive: 71.7%.

Take `N#C/C(=C\Nc1cc([N+](=O)[O-])ccc1F)c1nc(-c2cccs2)cs1`: the intracellular bacterial bioluminescence is inactive: 110%.

As to `COc1cccc(-c2cc3nc4c(c(O)n3n2)CCC4)c1`, the intracellular bacterial bioluminescence was inactive: 75.1%.

With `Cc1ccc2occ(CN3CCC4(CC3)NC(=O)c3cccnc3N4C)c(=O)c2c1`, the intracellular bacterial bioluminescence is inactive: 85.6%.

Take `O=C1CC(c2cccc(F)c2)Sc2nc3ccccc3n21` (stereo not given): the intracellular bacterial bioluminescence is inactive: 139%.

As for `N#CCn1ccn(-c2ccc3c(c2)OCO3)c(=O)c1=O`, the intracellular bacterial bioluminescence is inactive: 126%.

Regarding `O=C(NCc1ccc2c(c1)OCO2)c1c(O)nc2sccn2c1=O`, the intracellular bacterial bioluminescence is inactive: 129%.

`Cc1ccc(NC(=O)CN2CCC(C(=O)c3ccc4c(c3)OCCO4)CC2)cc1Cl`: the intracellular bacterial bioluminescence was inactive: 82%.

For the compound `Cn1c(=O)cc2c3c(c(NS(=O)(=O)c4ccc(F)cc4)ccc31)C(=O)c1ccccc1-2`, the intracellular bacterial bioluminescence is inactive: 97.7%.

Turning to `CC(C)c1ccc2nc(SCC(=O)NC3CCCC3)c(C#N)cc2c1`, the intracellular bacterial bioluminescence was inactive: 99.3%.

Regarding `O=C(NNc1nc2c(Cl)cccc2s1)c1cc(=O)c2ccccc2o1`, the intracellular bacterial bioluminescence is inactive: 109%.

For the compound `CC(=O)c1c(C)oc2ccc(NS(=O)(=O)c3cc4c5c(cccc5c3)C(=O)NC4=O)cc12`, the intracellular bacterial bioluminescence was inactive: 99.3%.

Turning to `CCc1nc2ccc(NC(=O)C3(C)CC(=O)N=C4C=C(C)C=CN43)cc2[nH]1` (stereo not given), the intracellular bacterial bioluminescence is inactive: 102%.

For `CC/N=C1/SC(CC(=O)Nc2sc(CC)cc2C(=O)OCC)C(=O)N1CC` (stereo not given), the intracellular bacterial bioluminescence was inactive: 109%.

Turning to `COc1cccc(CNC(=O)CSc2nnc3c4ccccc4n(C)c3n2)c1`, the intracellular bacterial bioluminescence is inactive: 97.7%.

As for `CSc1cccc2sc(Nc3ccccc3Cl)nc12`, the intracellular bacterial bioluminescence is inactive: 73.5%.

As for `Cc1ccc(-n2ncc3c(=O)n(CC(=O)NCc4ccccc4)cnc32)cc1`, the intracellular bacterial bioluminescence was inactive: 83.4%.

As for `O=C(CSc1nc2c(cnn2-c2ccccc2)c(=O)[nH]1)NCCc1ccccc1`, the intracellular bacterial bioluminescence was inactive: 106%.

Regarding `O=C(COc1ccc(Cl)cc1/C=C1\SC(=O)NC1=O)Nc1ccccc1`, the intracellular bacterial bioluminescence was inactive: 98%.

On to `Cc1ccc(-c2csc(-c3cccn3CC(=O)N3CCCCCC3)n2)cc1`, for which the intracellular bacterial bioluminescence is inactive: 50.8%.

On to `O=C(Nc1cccc2ccccc12)C1CCN(c2nnnn2-c2ccccc2)CC1`, for which the intracellular bacterial bioluminescence is inactive: 83.7%.

`COCCn1c(C)cc(O)c(C(c2ccncc2)N2CCC(C)CC2)c1=O` (stereo not given): the intracellular bacterial bioluminescence is inactive: 109%.

As for `CC(Oc1ccccc1)C(=O)N1CCC2(CC1)CC(=O)c1ccccc1O2` (stereo not given), the intracellular bacterial bioluminescence is inactive: 107%.

Take `NC(=O)c1cc2c(ccc3ccccc32)o/c1=N\NC(=O)c1ccccc1`: the intracellular bacterial bioluminescence is inactive: 83.6%.

As for `Cc1cc(C)nc(SCc2cc(=O)c(OC(=O)c3ccc4c(c3)OCO4)co2)n1`, the intracellular bacterial bioluminescence was inactive: 100%.

For the compound `Cc1ccc(C(=O)NCCn2ccc(C)n2)c(N2CCN(CCO)CC2)n1`, the intracellular bacterial bioluminescence was inactive: 80.6%.

In the case of `COc1ccccc1/C=C/C1=NC(=C\c2coc3ccccc3c2=O)/C(=O)O1`, the intracellular bacterial bioluminescence was inactive: 80.4%.

`COc1ccccc1/N=c1\sc(C(C)=O)c(C)n1CCCN1CCOCC1`: the intracellular bacterial bioluminescence is inactive: 104%.

In the case of `CC1=C(C(=O)Nc2ccccc2C)C(c2ccc(C)o2)n2c(s/c(=C/c3ccc(O)cc3)c2=O)=N1` (stereo not given), the intracellular bacterial bioluminescence is inactive: 83.1%.

Turning to `COc1ccc(C2NCCc3cc(O)c(O)cc32)cc1OC` (stereo not given), the intracellular bacterial bioluminescence is inactive: 105%.

Consider `O=C(NCc1ccccc1)N1CCCC1c1nc(Cc2ccc(F)cc2)n[nH]1` (stereo not given), for which the intracellular bacterial bioluminescence was inactive: 102%.

Consider `COc1cc(C2c3sc(=O)[nH]c3SC3C4CCC(C4)C23)ccc1O` (stereo not given), for which the intracellular bacterial bioluminescence is inactive: 92.2%.

`O=C(Nc1ccc(F)cc1F)c1nnc(C2CCN(S(=O)(=O)c3c[nH]cn3)CC2)s1`: the intracellular bacterial bioluminescence is inactive: 67.6%.

`O=C(CCCc1nnc2c(=O)n(-c3ccc(Cl)cc3)ccn12)N1CCN(C2CCCCC2)CC1`: the intracellular bacterial bioluminescence is inactive: 116%.

Take `O=C(CSC1=N/C(=C/c2ccc3c(c2)OCO3)C(=O)N1c1ccccc1)c1ccccc1`: the intracellular bacterial bioluminescence is inactive: 111%.

Consider `O=C(CCN1CCOCC1)N/N=C/c1ccc(OC(=O)c2cccnc2)cc1`, for which the intracellular bacterial bioluminescence was inactive: 95.6%.

As to `Cc1[nH]c2nc(CNc3cccc(Cl)c3C)nn2c(=O)c1C`, the intracellular bacterial bioluminescence is inactive: 123%.

Consider `Cc1nn(-c2ccccc2)c2ncc(C(=O)NCCC(C)C)c(NCc3ccc(Cl)cc3)c12`, for which the intracellular bacterial bioluminescence was inactive: 70.2%.

Regarding `O=C(CCCCn1c(=O)[nH]c2ccsc2c1=O)NCC1CCCO1` (stereo not given), the intracellular bacterial bioluminescence is inactive: 114%.

For `CCCC(CCC)C(=O)N1CCC(c2nnc(C(=O)Nc3ccccc3C)s2)CC1`, the intracellular bacterial bioluminescence is inactive: 72.9%.

For the compound `COc1cccc(NC(=O)c2nc(N3CCCC3)c3c(C)c(C)n(-c4ccccc4)c3n2)c1`, the intracellular bacterial bioluminescence is inactive: 87.4%.

As to `O=C(NCc1cccs1)c1cnc2cc3c(cc2c1O)OCCO3`, the intracellular bacterial bioluminescence is inactive: 94.4%.

As to `COc1ccc(NC(=O)C2CCCN2C(=O)NC2CCCCC2)c(OC)c1` (stereo not given), the intracellular bacterial bioluminescence is inactive: 112%.

Regarding `CCOC(=O)c1oc2ccccc2c1NC(=O)c1cccc([N+](=O)[O-])c1`, the intracellular bacterial bioluminescence is inactive: 110%.

Take `O=C(NC1CCCC1)c1cc2c(=O)n3ccccc3nc2s1`: the intracellular bacterial bioluminescence was inactive: 28.7%.

Turning to `Cc1ccc(CNC(=O)CCc2nc(N3CCCC3)c3c(C)noc3n2)cc1`, the intracellular bacterial bioluminescence was inactive: 79.7%.

Take `CC(NC(=O)COc1ncnc2onc(-c3cccc(F)c3)c12)c1ccccc1` (stereo not given): the intracellular bacterial bioluminescence is inactive: 75.2%.

Consider `Cc1ccc(/C=C2/S/C(=N/c3ccc(O)cc3)NC2=O)o1`, for which the intracellular bacterial bioluminescence was inactive: 70.2%.

`COc1cccc(NCc2cc3c(C)nn(-c4ccc(F)cc4)c3[nH]c2=O)c1`: the intracellular bacterial bioluminescence was inactive: 127%.

`Nc1ncnc(SC2=NCCCN2)c1[N+](=O)[O-]`: the intracellular bacterial bioluminescence is inactive: 88.9%.

With `COc1ccc(C2=C(C)C(N3CCC(C(=O)NCc4ccc5c(c4)OCO5)CC3)=NS2(=O)=O)cc1`, the intracellular bacterial bioluminescence was inactive: 110%.

Take `Cc1cccc2sc(NC(=O)CN3C(=O)c4ccccc4S3(=O)=O)nc12`: the intracellular bacterial bioluminescence is inactive: 7.81%.

In the case of `COCCn1/c(=N/C(=O)c2cc(=O)c3ccccc3o2)sc2ccccc21`, the intracellular bacterial bioluminescence was inactive: 115%.

For the compound `O=C(CCn1cnc2c(-c3ccccc3)noc2c1=O)NC1CCS(=O)(=O)C1` (stereo not given), the intracellular bacterial bioluminescence is inactive: 94.2%.

For the compound `Cc1cccc2c1NC(=O)C2(O)CC(=O)c1ccc(-c2ccc(Cl)cc2)o1` (stereo not given), the intracellular bacterial bioluminescence is inactive: 82.7%.

On to `Cc1cn2c3c(=O)n(C)c(=O)n(C)c3nc2n1CCCn1ccnc1`, for which the intracellular bacterial bioluminescence was inactive: 131%.

Take `CC(=O)Nc1c(C)cc(C)c(NS(=O)(=O)c2ccc3c(c2)NC(=O)CO3)c1C`: the intracellular bacterial bioluminescence was inactive: 104%.

Take `COc1ccc(OC)c(CCn2c(=S)[nH]c3c(oc4ccccc43)c2=O)c1`: the intracellular bacterial bioluminescence is inactive: 116%.

Turning to `CC(=O)c1ccc(S(=O)(=O)Nc2ccc(-n3c(C)nc4ccccc4c3=O)cc2)cc1`, the intracellular bacterial bioluminescence is inactive: 106%.

Consider `O=C(NCc1ccc2c(c1)OCO2)C1CCN(c2nccn3nc(-c4ccc(F)cc4)cc23)CC1`, for which the intracellular bacterial bioluminescence is inactive: 91.2%.

For the compound `CN1CCCC(NC(=O)COc2ncnc3ccccc23)C1` (stereo not given), the intracellular bacterial bioluminescence is inactive: 101%.

With `CCCc1cc(=O)[nH]c(Nc2cc(Cl)ccc2O)n1`, the intracellular bacterial bioluminescence is inactive: 127%.

In the case of `Cc1ccc(-n2c(C)cs/c2=N\C(=S)Nc2ccccc2)cc1`, the intracellular bacterial bioluminescence is inactive: 71.1%.

As for `O=C(CSc1nc2ccc(N3CCCCC3)cc2c(=O)n1Cc1ccccc1)NCc1ccco1`, the intracellular bacterial bioluminescence is inactive: 89.3%.

Turning to `Cc1nn2c(N(C)C)cc(C(C)(C)C)nc2c1-c1ccc(F)cc1`, the intracellular bacterial bioluminescence was inactive: 95.9%.

Turning to `Cc1nn(C)c(C)c1NC(=O)CCn1c(-c2ccc(F)cc2)cc2cccnc21`, the intracellular bacterial bioluminescence was inactive: 85.9%.

As to `COc1cc(OC)c(NS(=O)(=O)c2cc(-c3cc(C(F)(F)F)on3)cs2)cc1Cl`, the intracellular bacterial bioluminescence was inactive: 107%.

As for `Cc1ccc2cc(CN(C(=O)Nc3ccccc3F)C3CCCC3)c3nnnn3c2c1`, the intracellular bacterial bioluminescence was inactive: 39.5%.

With `CCn1c(C(=O)NCc2ccccn2)c(N2CCCC2=O)c2cc(F)ccc21`, the intracellular bacterial bioluminescence is inactive: 104%.
